# Results from US20250066425A1 (priority 2022, published 2025).
# Experiment: peptide synthesis
# Conditions: whole synthesis
sequence,measurement,value
RKKRRQRRRFQGQYFHSRQYKHPVGYEGK,final HPLC purity,95.694%

# No end group written: not given here.
